These are yes or no findings as the source states them, for the method shown. For part of these data: Binding seen in cells or lysates may run through a third protein. Some binding calls cover weakened binding; strength is not graded here.
Key:
[1] = target: COMMD1, endogenous in HT-29 cells (human (endogenous in HT-29)) (UniProt Q8N668); assay: co-IP; HT-29 lysates, endogenous proteins; IP with 0.8 µg anti-CFTR mAb (MAB25031) or 0.8 µg anti-COMMD1 mAb (Abnova), anti-mouse IgG as control; immunoblot for CFTR (MM13-4) and COMMD1 (rabbit pAb)
[2] = target: CFTR (cystic fibrosis transmembrane conductance regulator), endogenous in HT-29 cells (human (endogenous in HT-29)) (UniProt P13569); assay: as above
K978R-CFTR = K978R-CFTR (UniProt P13569); assay: co-IP; HeLa cells co-transfected with Myc-COMMD1 or empty vector and wt, K946R, K951R or K978R-CFTR; CFTR IP, immunoblot with anti-c-Myc mAb
K946R-CFTR = K946R-CFTR (UniProt P13569); assay: as above
[3] = target: wt-CFTR expressed in HeLa cells (pTracer-CMV construct) (UniProt P13569); assay: as above
K951R-CFTR = K951R-CFTR (UniProt P13569); assay: as above
[4] = target: wt-CFTR expressed in HeLa cells (pTracer-CMV construct) (UniProt P13569); assay: co-IP; HeLa cells stably expressing wt-CFTR (spTCF-wt) transfected with Myc-COMMD1 or Myc-COMMD1ΔCOMM; CFTR IP, immunoblot with anti-c-Myc mAb; spTracer cells as control
[5] = target: third intracytoplasmic loop (ICL3) of CFTR, amino acids Leu937 to Pro988 (UniProt P13569); assay: two-hybrid; yeast two-hybrid screen with CFTR ICL3 (Leu937 to Pro988) as bait
CFTR ICL3 mutant D979A = CFTR ICL3 mutant D979A (UniProt P13569); assay: two-hybrid; targeted yeast two-hybrid tests between COMMD1 and ICL3 mutants; data not shown

Amino acid sequences for entries named in this document (tags omitted). A change or cut given only in a name is not applied to a line headed by its entry. Chains listed by the source or under a name are the forms on record and can include a tag or linker. Residues count along the entry.
UniProt Q8N668: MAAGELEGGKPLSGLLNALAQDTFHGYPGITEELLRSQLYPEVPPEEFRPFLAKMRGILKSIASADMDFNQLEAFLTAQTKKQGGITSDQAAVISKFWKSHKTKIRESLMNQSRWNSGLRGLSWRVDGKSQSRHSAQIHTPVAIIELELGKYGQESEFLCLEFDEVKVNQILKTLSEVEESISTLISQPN
UniProt P13569: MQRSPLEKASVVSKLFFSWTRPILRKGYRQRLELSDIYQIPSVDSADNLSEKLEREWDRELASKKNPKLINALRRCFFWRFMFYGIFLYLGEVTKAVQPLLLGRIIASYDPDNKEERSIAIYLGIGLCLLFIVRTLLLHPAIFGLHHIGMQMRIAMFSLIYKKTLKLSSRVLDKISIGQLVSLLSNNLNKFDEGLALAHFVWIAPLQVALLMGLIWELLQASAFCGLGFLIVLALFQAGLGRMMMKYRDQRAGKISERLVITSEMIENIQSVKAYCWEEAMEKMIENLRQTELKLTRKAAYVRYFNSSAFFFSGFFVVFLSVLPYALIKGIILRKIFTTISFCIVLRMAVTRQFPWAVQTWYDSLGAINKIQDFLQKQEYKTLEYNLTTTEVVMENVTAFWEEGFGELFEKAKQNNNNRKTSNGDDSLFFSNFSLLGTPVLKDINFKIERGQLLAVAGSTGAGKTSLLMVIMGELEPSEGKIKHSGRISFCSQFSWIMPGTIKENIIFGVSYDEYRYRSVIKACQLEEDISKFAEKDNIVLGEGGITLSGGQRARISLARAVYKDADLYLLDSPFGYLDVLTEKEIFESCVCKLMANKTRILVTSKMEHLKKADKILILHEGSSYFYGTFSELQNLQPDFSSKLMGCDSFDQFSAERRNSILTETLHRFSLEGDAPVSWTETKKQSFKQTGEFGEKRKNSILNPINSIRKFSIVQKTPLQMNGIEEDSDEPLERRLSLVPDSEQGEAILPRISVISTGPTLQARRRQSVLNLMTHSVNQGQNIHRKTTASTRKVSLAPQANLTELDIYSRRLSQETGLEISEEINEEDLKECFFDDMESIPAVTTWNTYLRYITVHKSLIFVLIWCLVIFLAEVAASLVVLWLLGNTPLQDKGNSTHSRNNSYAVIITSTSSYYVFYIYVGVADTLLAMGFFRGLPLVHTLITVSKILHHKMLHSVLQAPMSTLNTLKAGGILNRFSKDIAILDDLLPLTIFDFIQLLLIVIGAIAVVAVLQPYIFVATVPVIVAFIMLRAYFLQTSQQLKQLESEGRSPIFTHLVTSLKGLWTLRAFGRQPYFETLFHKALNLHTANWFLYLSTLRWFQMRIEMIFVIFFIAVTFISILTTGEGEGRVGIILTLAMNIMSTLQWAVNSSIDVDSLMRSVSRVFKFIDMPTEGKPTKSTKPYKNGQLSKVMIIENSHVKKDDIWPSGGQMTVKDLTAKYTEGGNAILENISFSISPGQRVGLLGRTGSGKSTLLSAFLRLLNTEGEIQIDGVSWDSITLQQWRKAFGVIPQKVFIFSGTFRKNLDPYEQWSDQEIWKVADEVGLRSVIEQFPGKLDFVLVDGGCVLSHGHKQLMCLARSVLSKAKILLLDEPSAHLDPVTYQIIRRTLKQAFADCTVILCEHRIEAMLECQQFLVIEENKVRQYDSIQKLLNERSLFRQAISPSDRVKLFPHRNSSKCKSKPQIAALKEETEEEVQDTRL
third intracytoplasmic loop (ICL3) of CFTR, amino acids Leu937 to Pro988: residues 937-988 of P13569
CFTR ICL3 mutant D979A (P13569, form named): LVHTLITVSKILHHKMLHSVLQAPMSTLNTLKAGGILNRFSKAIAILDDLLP

CFTR (cystic fibrosis transmembrane conductance regulator), endogenous in HT-29 cells (from UniProt P13569 1-1480)
binding [1]: binds

COMMD1, endogenous in HT-29 cells (from UniProt Q8N668 1-190)
binding [2]: binds

Myc-COMMD1 (from UniProt Q8N668 1-190)
binding (K978R-CFTR): binds
binding (K946R-CFTR): binds
binding [3]: binds
binding (K951R-CFTR): binds
binding [4]: binds

human COMMD1 (amino acids 5-190), two-hybrid clone (from UniProt Q8N668 5-190) (domain or fragment)
binding [5]: binds
binding (CFTR ICL3 mutant D979A): binds

— publication PMC3069076
